These are yes or no findings as the source states them, for the method shown. In cells and extracts the contact can be indirect. Some binding calls cover weakened binding; strength is not graded here.
Key:
[1] = biological target: Abelson Interactor 1 (ABI1), endogenous (human (endogenous in VCaP, LAPC4, LNCaP, 22Rv1 and patient tumors)) (UniProt Q8IZP0); assay: proximity ligation
[2] = biological target: Abelson Interactor 1 (ABI1), endogenous (human (endogenous in VCaP, LAPC4, LNCaP, 22Rv1 and patient tumors)) (UniProt Q8IZP0); assay: co-IP
[3] = biological target: Abelson Interactor 1 (ABI1), endogenous (human (endogenous in VCaP, LAPC4, LNCaP, 22Rv1 and patient tumors)) (UniProt Q8IZP0); assay: proximity ligation; remark: listed apart in the source

Sequences of proteins named here, by UniProt entry; tags and fusion partners are left off. A change or cut given only in a name is not applied to a line headed by its entry. A line that says so, or that is headed by a name, gives the form on record, which may keep a tag or linker.
UniProt Q8IZP0: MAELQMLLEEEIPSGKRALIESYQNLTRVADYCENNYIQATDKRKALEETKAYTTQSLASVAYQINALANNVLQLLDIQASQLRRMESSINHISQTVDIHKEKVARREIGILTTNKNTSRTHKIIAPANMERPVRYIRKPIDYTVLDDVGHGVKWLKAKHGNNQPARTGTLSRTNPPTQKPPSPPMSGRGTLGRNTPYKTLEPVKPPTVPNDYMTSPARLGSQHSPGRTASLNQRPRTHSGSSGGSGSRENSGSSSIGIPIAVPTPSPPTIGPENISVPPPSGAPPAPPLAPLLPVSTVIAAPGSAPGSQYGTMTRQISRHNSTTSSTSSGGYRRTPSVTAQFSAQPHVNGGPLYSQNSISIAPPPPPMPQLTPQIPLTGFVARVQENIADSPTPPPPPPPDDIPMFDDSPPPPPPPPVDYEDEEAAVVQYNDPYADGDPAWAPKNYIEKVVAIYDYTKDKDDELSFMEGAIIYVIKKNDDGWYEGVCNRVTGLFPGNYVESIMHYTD
Androgen Receptor splice variant 7 (ARv7), endogenous (P10275-3, form named): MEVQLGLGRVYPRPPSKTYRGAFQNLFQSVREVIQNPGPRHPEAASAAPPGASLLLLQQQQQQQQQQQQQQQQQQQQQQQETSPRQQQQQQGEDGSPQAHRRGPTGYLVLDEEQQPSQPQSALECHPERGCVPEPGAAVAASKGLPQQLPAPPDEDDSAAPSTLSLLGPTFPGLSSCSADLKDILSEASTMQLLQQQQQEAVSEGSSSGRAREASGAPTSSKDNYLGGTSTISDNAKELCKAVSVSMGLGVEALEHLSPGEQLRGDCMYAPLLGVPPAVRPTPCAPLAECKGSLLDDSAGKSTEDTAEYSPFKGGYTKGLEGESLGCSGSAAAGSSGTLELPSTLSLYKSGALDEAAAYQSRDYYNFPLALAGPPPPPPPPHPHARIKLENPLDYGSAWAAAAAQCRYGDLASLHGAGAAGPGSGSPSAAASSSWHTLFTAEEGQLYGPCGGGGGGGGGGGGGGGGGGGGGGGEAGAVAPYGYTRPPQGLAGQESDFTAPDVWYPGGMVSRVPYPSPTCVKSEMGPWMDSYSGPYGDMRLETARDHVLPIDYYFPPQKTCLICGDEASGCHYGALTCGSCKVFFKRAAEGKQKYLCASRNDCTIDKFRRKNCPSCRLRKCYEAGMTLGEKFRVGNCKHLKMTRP

Measured: binding

Androgen Receptor splice variant 7 (ARv7), endogenous (from UniProt P10275-3 1-644)
binds: all assays above

From paper doi:10.1101/2023.05.26.542350
